In patent publication US20230357429A1:
No constants are given. Whether binding was seen depends on the method and setting.

What was measured:
TBD-1 wt = assay: competition ELISA: peptide titrated against a constant concentration of TBD-1 binding to plate-bound biotinylated TROP2
TBD-6 (LC I93A) = assay: competition ELISA: peptide titrated against a constant concentration of TBD-6 binding to plate-bound biotinylated TROP2

| Binder | binding (TBD-1 wt) | binding (TBD-6 (LC I93A)) |
| --- | --- | --- |
| VEFCKQWTWFGCMT (biotinylated in the binding ELISA (site not stated)) [Peptide-44] | no binding (tested: 100 uM) | no binding (tested: 100 uM) |
| VEICKQWFYTVCLS (biotinylated in the binding ELISA (site not stated)) [Peptide-58] | no binding (tested: 100 uM) | no binding (tested: 100 uM) |
